# Test: Effect of interference sugars on DBA2+ based conductimetric sensor (solution resistance)
# Description: To a reservoir in a device set up as depicted shown in FIG. 3, 1 mL of the initial testing solution (2 mM DBA2+P and 2.5 mM Na3PO4, pH=7.6) was added. Direct current voltage is 0 mV due to the same material for two electrodes. Alternating current voltage was set at 20 mV, and the impedance was scanned vs. frequency from 10 Hz to 10 MHz (FIGS. 4A-4C). At 0.1 MHz, the capacitive reactance is very small compared to the resistance (R) of the solution, and thus this frequency was used for the following tests.
# To the testing solution, trace quantities (2-5 μL) of a concentrated (0.5 or 2 M) glucose aqueous solution were continuously added. Glucose solutions were added every 30 minutes with concentrations spanning the diabetes-relevant range, (i.e. [glucose]=0-30 mM). The resistance of solution vs. time was collected for 30 min after each addition. After adding glucose to 30 mM, the testing solution was diluted to 12 mM by adding 1.5 mL of fresh testing solution. 1.5 mL was then discharged after mixing and the resistance of the remaining 1 mL solution was monitored.
# Interference effects from other sugars, i.e. fructose, galactose, maltose, and lactose, were examined. Tests were performed at two different glucose concentrations typically experienced in diabetes, 5 mM (i.e. a physiological concentration of glucose) and 20 mM (i.e. a pathophysiological concentration of glucose) in 1 mL of testing solution. In these tests, interferent concentrations were higher or equal to 2.5 times the maximum plasma concentration (MPC). To the testing solution containing glucose, 2 μL or 5 μL of one of the interference solutions (containing fructose, galactose, maltose, or lactose) were added and the solution resistance (R) was monitored. The interference by 1 mM fructose or galactose was tested due to the considerable high affinity compared to the other […].
# [1] = added to testing solution with 5 mM or 20 mM glucose, FIG. 7B
Compound,"effect on solution resistance (R), in words [1]","effect on solution resistance (R), in words (high glucose (20 mM) conditions, 1 mM fructose)"
"OC[C@H]1O[C@@H](O[C@H]2[C@H](O)[C@@H](O)C(O)O[C@@H]2CO)[C@H](O)[C@@H](O)[C@H]1O (stereo partly shown) [Lactose, lactose]",no significant change,
"O=C[C@H](O)[C@@H](O)[C@@H](O)[C@H](O)CO [Galactose, galactose]",negligible effect,
"OC[C@H]1O[C@H](O[C@H]2[C@H](O)[C@@H](O)[C@H](O)O[C@@H]2CO)[C@H](O)[C@@H](O)[C@@H]1O [Maltose, maltose]",no significant change,
"O=C(CO)[C@@H](O)[C@H](O)[C@H](O)CO [Fructose, fructose]",,only a transient increase

# Source: US20220204531A1, “DIBORONIC ACID COMPOUNDS AND METHODS OF MAKING AND USING THEREOF” (The Regents of The University of California, priority 2020, published 2022)
